# From the supplement of paper PMC10849652
# Chains of the proteins cited; added tags and fusions are not shown. Lines headed by an entry give the natural chain unless they say otherwise; changes in a name come on top.
# UniProt Q9NWQ9: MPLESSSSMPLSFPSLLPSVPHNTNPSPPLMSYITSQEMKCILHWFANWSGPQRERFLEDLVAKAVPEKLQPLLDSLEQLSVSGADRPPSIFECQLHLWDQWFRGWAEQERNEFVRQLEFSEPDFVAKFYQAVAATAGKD
# UniProt Q6P5X5: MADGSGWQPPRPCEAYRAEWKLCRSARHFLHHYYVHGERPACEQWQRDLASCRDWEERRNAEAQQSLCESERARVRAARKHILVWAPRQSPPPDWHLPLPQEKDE
# UniProt Q16581: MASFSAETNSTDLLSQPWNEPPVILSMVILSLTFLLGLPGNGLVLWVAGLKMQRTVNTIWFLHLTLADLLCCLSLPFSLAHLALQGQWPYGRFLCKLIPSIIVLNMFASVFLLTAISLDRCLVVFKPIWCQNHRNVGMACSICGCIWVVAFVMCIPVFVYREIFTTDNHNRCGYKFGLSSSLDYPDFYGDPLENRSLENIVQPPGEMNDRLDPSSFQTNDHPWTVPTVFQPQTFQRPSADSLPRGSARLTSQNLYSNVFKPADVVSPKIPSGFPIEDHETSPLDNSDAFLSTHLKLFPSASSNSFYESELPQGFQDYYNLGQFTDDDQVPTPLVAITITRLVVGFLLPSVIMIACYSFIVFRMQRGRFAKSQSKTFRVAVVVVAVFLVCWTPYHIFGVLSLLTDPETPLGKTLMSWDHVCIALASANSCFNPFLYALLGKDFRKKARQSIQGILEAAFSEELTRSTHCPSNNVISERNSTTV
# UniProt Q8N3J3: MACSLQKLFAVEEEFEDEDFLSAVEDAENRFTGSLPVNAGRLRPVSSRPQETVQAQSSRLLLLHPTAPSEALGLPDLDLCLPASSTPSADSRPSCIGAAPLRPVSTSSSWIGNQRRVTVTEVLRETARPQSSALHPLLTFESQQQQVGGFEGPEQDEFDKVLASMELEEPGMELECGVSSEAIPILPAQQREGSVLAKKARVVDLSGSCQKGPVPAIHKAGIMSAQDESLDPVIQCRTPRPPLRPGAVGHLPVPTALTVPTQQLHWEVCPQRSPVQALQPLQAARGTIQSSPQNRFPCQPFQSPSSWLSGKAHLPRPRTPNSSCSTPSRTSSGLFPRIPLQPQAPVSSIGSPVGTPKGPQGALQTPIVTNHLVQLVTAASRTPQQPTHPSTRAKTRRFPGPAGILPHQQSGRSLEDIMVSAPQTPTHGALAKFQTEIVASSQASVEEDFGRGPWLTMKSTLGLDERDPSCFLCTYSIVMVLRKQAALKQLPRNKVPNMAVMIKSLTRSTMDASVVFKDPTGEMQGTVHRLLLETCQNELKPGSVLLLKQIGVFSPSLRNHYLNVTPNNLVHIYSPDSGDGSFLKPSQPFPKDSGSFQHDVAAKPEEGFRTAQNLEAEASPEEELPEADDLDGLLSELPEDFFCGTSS
# UniProt Q8IYL3: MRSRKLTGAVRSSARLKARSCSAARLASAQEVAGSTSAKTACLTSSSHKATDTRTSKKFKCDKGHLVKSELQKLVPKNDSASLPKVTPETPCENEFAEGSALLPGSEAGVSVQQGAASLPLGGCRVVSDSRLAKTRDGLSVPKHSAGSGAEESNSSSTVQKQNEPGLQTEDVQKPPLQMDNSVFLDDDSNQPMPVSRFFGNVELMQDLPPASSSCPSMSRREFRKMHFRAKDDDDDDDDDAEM
# UniProt Q504U0: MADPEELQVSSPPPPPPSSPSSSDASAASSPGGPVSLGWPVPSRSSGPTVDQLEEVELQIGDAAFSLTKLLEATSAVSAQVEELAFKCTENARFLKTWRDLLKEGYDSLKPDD
# UniProt Q9NX04: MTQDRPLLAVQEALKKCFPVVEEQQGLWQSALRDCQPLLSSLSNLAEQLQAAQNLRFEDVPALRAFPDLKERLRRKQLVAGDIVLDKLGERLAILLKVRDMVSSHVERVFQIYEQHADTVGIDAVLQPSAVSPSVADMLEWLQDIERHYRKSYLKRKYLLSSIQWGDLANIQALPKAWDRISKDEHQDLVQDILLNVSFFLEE
# UniProt Q9BSF0: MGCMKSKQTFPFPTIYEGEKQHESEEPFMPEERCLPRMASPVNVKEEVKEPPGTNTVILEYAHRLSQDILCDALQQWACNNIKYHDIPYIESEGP
# UniProt Q9NZP8: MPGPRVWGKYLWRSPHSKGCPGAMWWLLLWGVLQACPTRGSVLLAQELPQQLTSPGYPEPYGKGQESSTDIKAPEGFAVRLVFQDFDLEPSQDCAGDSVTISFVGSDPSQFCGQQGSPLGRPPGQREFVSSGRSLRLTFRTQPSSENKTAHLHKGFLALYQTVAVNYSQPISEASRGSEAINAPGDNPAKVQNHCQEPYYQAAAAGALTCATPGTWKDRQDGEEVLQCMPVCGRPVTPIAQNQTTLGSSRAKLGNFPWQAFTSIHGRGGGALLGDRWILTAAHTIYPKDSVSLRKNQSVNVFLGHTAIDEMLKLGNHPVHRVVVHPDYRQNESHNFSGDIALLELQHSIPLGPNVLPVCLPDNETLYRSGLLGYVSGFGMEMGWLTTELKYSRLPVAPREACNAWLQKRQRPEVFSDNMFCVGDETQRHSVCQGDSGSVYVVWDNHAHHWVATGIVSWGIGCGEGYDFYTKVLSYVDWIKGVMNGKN
# UniProt Q5SQH8: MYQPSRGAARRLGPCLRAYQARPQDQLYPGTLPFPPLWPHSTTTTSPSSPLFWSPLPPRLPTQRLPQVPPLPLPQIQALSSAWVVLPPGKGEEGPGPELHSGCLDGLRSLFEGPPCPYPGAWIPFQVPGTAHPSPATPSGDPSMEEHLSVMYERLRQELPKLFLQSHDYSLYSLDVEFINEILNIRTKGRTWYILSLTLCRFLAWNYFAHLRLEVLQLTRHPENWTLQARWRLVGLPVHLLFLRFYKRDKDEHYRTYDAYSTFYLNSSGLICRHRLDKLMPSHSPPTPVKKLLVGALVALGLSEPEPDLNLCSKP
# UniProt Q96F05: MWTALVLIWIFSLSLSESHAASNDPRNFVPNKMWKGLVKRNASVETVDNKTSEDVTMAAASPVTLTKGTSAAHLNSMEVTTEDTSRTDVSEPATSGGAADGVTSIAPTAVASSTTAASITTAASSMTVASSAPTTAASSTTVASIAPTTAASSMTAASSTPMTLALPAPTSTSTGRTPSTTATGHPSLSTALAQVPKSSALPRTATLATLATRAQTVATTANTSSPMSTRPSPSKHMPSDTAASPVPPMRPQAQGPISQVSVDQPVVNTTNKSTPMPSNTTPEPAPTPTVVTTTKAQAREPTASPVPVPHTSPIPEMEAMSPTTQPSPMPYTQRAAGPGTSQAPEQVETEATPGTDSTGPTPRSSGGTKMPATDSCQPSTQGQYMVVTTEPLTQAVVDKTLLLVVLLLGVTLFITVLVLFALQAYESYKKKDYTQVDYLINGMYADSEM
# UniProt Q9NQ89: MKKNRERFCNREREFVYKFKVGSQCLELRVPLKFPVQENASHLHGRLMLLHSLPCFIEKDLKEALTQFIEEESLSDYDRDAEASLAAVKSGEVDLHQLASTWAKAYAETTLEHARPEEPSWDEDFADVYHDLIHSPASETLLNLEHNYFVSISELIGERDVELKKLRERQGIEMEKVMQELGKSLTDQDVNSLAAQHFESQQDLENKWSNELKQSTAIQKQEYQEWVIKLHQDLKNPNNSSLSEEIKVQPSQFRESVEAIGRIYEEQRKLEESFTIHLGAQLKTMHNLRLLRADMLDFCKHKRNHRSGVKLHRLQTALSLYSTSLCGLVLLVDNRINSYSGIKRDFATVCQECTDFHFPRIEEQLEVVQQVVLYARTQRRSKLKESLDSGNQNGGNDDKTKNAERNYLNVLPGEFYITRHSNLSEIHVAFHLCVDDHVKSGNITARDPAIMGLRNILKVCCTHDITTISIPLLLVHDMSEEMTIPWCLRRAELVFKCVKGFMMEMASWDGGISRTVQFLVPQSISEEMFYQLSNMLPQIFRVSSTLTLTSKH
# UniProt Q9NSK7: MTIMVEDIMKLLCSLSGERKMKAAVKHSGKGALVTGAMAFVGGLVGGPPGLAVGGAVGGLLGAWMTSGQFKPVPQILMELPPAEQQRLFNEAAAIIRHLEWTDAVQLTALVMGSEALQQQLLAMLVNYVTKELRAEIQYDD
# UniProt P23280: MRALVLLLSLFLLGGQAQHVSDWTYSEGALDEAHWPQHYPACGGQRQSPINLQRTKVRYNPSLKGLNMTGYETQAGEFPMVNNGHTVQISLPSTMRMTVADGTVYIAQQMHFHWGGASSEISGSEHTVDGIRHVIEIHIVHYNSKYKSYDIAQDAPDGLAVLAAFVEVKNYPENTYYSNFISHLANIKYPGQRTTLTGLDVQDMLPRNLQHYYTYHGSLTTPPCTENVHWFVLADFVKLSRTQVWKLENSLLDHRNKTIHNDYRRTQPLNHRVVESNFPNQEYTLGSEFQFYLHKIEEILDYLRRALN
# The other results are listed elsewhere or left out.
# Legend:
# Test in all cases: log2 fold change, soluble protein after heating vs DMSO (PISA); higher = thermal stabilisation; K562 lysate, 10 uM; active = over 0.2 and 3.5 SD of the protein, either way, in both replicates (recomputed)
# [1] = compound: O=C1NC(=O)C(c2cnc3ccccn23)=C1c1cn2c3c(cc(F)cc13)CN(C(=O)N1CCCCC1)CC2
# Outline: (§1)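 A 30 min treatment with 10 μM compound was applied to crude K562 extract at 1 mg/mL protein in PBS pH 7.4 with 1 mM MgCl2. Heating for 3 min spanned 48°C-58°C, after which aliquots were pooled, adjusted to 0.5% NP-40 at 4°C and spun at 21,000xg for 90 min. TMTpro 16plex LC-MS/MS of the supernatant, with channel sums equalised, gave values recorded as log-two fold change in thermal stability against solvent controls, from duplicates.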
# [2] = compound: NCC(=O)Nc1ccc(-n2nc(C(F)(F)F)cc2-c2ccc3c(ccc4ccccc43)c2)cc1
# Outline: as §1
# entospletinib = compound: c1cn2cc(-c3ccc4cn[nH]c4c3)nc(Nc3ccc(N4CCOCC4)cc3)c2n1 [entospletinib]
# Outline: as §1
# vorinostat = compound: O=C(CCCCCCC(=O)Nc1ccccc1)NO [vorinostat]
# Outline: as §1
# silmitasertib = compound: O=C(O)c1ccc2c(c1)nc(Nc1cccc(Cl)c1)c1ccncc12 [silmitasertib]
# Outline: as §1
target,measurement,setting,value
C14orf119 (UniProt Q9NWQ9),log2 fold change,[1],inactive: -0.036
C22orf39 (UniProt Q6P5X5),log2 fold change,[2],inactive: -0.252
same,log2 fold change,entospletinib,inactive: 0.281
C3AR1 (UniProt Q16581),log2 fold change,[1],inactive: -0.013
C12orf73 (UniProt Q69YU5),log2 fold change,vorinostat,inactive: 0.044
same,log2 fold change,silmitasertib,inactive: -0.004
same,log2 fold change,[1],inactive: 0.019
C17orf53 (UniProt Q8N3J3),log2 fold change,vorinostat,inactive: -0.253
same,log2 fold change,silmitasertib,inactive: -0.086
same,log2 fold change,[1],inactive: 0.047
C1orf174 (UniProt Q8IYL3),log2 fold change,[2],inactive: -0.015
same,log2 fold change,[1],inactive: -0.019
C4orf46 (UniProt Q504U0),log2 fold change,vorinostat,inactive: 0.016
same,log2 fold change,silmitasertib,inactive: -0.03
C1orf109 (UniProt Q9NX04),log2 fold change,vorinostat,inactive: -0.056
same,log2 fold change,silmitasertib,inactive: 0.092
same,log2 fold change,[1],inactive: -0.027
same,log2 fold change,entospletinib,inactive: 0.026
C2orf88 (UniProt Q9BSF0),log2 fold change,[1],inactive: 0.034
C1RL (UniProt Q9NZP8),log2 fold change,entospletinib,inactive: 0.129
C6orf136 isoform 4 (UniProt Q5SQH8),log2 fold change,[2],inactive: -0.121
same,log2 fold change,vorinostat,inactive: -0.095
same,log2 fold change,silmitasertib,inactive: 0.037
same,log2 fold change,entospletinib,inactive: -0.017
C11orf24 (UniProt Q96F05),log2 fold change,[1],inactive: 0.063
C12orf4 (UniProt Q9NQ89),log2 fold change,vorinostat,inactive: -0.425
same,log2 fold change,silmitasertib,inactive: 0.071
same,log2 fold change,[1],inactive: 0.027
same,log2 fold change,entospletinib,inactive: 0.102
C19orf12 (UniProt Q9NSK7),log2 fold change,[1],inactive: -0.018
same,log2 fold change,entospletinib,inactive: 0.008
CA6 (UniProt P23280),log2 fold change,vorinostat,inactive: 0.089
same,log2 fold change,silmitasertib,inactive: -0.013

# Three entries from above in another layout:
target	measurement	setting	value
C19orf12 (UniProt Q9NSK7)	log2 fold change	entospletinib	inactive: 0.008
CA6 (UniProt P23280)	log2 fold change	vorinostat	inactive: 0.089
same	log2 fold change	silmitasertib	inactive: -0.013
